Measured values published in PMC4519132.
These are yes or no findings as the source states them, for the method shown. For some assays here: Binding calls can cover weak binding; strength is not graded here.

Experiments:
[1] = molecular target: EcR-B1 AF2 domain (EcR-AF2), two-hybrid bait (Drosophila); experiment: two-hybrid; EcR/USP fragments in pGBKT7 (bait), Drosophila Med14/CDK8 in pGADT7 (prey), in yeast cells; the ligand 20E not present
[2] = molecular target: EcR-B1 AF1 domain (EcR-AF1), two-hybrid bait (Drosophila); experiment: as above

binding [1]: no binding | binding [2]: binds
B1: Med14 (159-320AA), fragment that contains the LXXLL motif, two-hybrid prey (domain or fragment, UniProt Q9W0P8 159-320)
chain: IRERIVPADAITPAEKRQTLLRLNQVIQHRLVTGKLLPQMREFRIRNGRVTFEVKHEFSVSLTVMGDNPTVPWRLLDIDVLVEDKETGDGKSLVHPLQVNYIHQLIQARLVENPNALSEVYNCLHYFCQSLQLEVLYTQTLRLNYERLDDNNITVEEYVPGV
